Results are given in words; binding and its absence hold for the method and conditions named. In cells and extracts the contact can be indirect. Some binding calls cover weakened binding; strength is not graded here. Tags and fused reporters may be left off the sequences shown.
T1: human DYK-tagged M1AP (meiosis 1-associated protein), full-length wild type (human) (UniProt Q8TC57)
T1 sequence: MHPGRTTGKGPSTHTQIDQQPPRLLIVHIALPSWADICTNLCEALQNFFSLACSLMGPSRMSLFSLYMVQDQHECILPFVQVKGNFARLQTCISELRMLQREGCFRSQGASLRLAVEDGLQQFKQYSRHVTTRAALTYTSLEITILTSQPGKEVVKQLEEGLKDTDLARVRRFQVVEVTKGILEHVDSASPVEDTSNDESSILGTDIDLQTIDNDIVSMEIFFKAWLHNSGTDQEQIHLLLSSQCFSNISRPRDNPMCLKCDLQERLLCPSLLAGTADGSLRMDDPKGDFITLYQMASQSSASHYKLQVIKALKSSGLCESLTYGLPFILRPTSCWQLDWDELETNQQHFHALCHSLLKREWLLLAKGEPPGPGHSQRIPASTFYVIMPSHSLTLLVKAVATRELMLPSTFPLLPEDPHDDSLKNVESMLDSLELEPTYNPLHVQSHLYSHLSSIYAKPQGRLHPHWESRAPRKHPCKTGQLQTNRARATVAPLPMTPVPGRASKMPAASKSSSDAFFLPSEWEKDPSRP

Sequences of proteins named here, by UniProt entry; tags and fusion partners are left off.
UniProt Q5VXU9: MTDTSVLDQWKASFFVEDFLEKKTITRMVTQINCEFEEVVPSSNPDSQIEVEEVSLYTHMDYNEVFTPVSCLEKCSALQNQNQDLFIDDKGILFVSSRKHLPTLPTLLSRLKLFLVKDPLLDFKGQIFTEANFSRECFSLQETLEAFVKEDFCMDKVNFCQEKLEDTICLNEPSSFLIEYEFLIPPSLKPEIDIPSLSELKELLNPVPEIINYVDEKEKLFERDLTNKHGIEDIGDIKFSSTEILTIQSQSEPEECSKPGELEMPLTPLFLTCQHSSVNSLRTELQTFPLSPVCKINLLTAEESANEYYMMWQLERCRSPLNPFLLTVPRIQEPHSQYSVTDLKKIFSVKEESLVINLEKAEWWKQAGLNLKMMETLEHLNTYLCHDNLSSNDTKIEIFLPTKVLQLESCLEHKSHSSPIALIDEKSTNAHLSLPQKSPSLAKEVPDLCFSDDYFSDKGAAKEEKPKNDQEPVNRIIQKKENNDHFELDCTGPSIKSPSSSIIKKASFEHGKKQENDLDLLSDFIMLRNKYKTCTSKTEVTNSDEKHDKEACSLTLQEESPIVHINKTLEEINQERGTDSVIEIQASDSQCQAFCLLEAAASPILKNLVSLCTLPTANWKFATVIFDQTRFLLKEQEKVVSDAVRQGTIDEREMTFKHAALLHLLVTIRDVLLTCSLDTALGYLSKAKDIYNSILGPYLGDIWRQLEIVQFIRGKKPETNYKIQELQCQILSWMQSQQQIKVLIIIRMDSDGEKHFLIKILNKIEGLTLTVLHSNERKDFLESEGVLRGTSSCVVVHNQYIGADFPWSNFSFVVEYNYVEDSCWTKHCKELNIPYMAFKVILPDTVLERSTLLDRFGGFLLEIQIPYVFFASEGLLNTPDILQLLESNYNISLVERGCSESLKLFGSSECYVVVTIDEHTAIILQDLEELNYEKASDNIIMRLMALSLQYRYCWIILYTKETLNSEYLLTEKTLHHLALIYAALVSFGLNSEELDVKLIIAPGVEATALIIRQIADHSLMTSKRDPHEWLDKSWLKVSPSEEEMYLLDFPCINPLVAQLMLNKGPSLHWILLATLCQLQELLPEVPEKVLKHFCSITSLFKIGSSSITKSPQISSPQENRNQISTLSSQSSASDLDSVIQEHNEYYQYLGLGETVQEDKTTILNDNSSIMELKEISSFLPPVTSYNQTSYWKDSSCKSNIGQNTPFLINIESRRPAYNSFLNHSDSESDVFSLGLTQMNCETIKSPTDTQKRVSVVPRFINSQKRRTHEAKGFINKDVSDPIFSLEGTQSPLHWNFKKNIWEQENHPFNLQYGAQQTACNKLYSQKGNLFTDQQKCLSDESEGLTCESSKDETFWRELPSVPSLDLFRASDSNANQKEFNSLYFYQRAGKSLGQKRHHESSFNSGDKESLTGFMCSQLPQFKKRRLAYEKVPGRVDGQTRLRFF


What was measured:
[1] = biological target: T1, human DYK-tagged M1AP (meiosis 1-associated protein), full-length wild type (human); assay: co-IP; co-transfected HEK293T lysates (25 mM Tris-HCl pH 7.4, 150 mM NaCl, 10 mM EDTA, 1% NP-40, 5% glycerol); magnetic anti-DYKDDDDK tag beads hold DYK-M1AP, 30 min at RT; HA-SPO16 detected by Western blot
[2] = biological target: human HA-tagged SHOC1 (human) (UniProt Q5VXU9); assay: co-IP; co-transfected HEK293T lysates (25 mM Tris-HCl pH 7.4, 150 mM NaCl, 10 mM EDTA, 1% NP-40, 5% glycerol); magnetic anti-HA tag beads hold HA-SHOC1 or HA-TEX11, 30 min at RT; DYK-M1AP detected by Western blot

binding [1] | binding [2] | Binder
binds | – | human HA-tagged SPO16 (C1orf146) (protein, UniProt Q5VVC0 1-180) MAESGKEKIKWTTTIIISSSLKSYEVATALENRSHKVRYSDSVENGSIIFSLSGVAFLLMDTKECLLSTEEIFLAKIEKFINIHQNSFLVLSAALHGPEEWKLMFRIQQRFLGCNLRILPVHNTVNAINLMCTIAKTTSKPYIDSICYRMITAKAYIIEQSPVWKTLQKIKLNSDSVNPN
– | binds | human DYK-tagged M1AP (meiosis 1-associated protein), full-length wild type (protein, UniProt Q8TC57-1 1-530) MHPGRTTGKGPSTHTQIDQQPPRLLIVHIALPSWADICTNLCEALQNFFSLACSLMGPSRMSLFSLYMVQDQHECILPFVQVKGNFARLQTCISELRMLQREGCFRSQGASLRLAVEDGLQQFKQYSRHVTTRAALTYTSLEITILTSQPGKEVVKQLEEGLKDTDLARVRRFQVVEVTKGILEHVDSASPVEDTSNDESSILGTDIDLQTIDNDIVSMEIFFKAWLHNSGTDQEQIHLLLSSQCFSNISRPRDNPMCLKCDLQERLLCPSLLAGTADGSLRMDDPKGDFITLYQMASQSSASHYKLQVIKALKSSGLCESLTYGLPFILRPTSCWQLDWDELETNQQHFHALCHSLLKREWLLLAKGEPPGPGHSQRIPASTFYVIMPSHSLTLLVKAVATRELMLPSTFPLLPEDPHDDSLKNVESMLDSLELEPTYNPLHVQSHLYSHLSSIYAKPQGRLHPHWESRAPRKHPCKTGQLQTNRARATVAPLPMTPVPGRASKMPAASKSSSDAFFLPSEWEKDPSRP
